PubChem BioAssay AID540276 (National Center for Advancing Translational Sciences (NCATS), 2011)
Values joined by “and” are separate entries in the source; they are usually repeats but may differ in a detail not shown here. Equal values may be shown once. Among all 300,000 compounds or so, about 5,400 (1.8%) were called active. Inconclusive results, whose numbers are uncertain, are shown with a selection of clear calls. Calls come from the whole dose curve; tested in HEK293 cells. Where the call is inconclusive, the potency comes from a doubtful curve fit. The source holds several records for some structures; these can differ, active in one and inactive in another.

Assay: qHTS for inhibitors of binding or entry into cells for Marburg Virus
Settings: Marburg virus pseudotyped entry inhibition, cell reporter; activity change, negative = inhibition: at 37.8 µM (top of the series) unless noted
% is set by controls: 0 for no effect and ±100 for the full control effect; potency is the fitted concentration of half-maximal effect.

**Q.** Which Potency does the source give for `O=C(NCc1cccs1)C1CCN(c2ccc(S(=O)(=O)N3CCOCC3)cc2Cl)CC1` here?
**A.** inactive and active: 1.12 µM

**Q.** With `CCC(Oc1ccc2c(c1)C(=O)CC(C)(C)O2)C(=O)NCCN1CCCCCC1` (stereo not drawn) as the molecule, how does the “activity change, negative = inhibition” value read?
**A.** inactive: -21.5%

**Q.** Which Potency does the source give for `COc1ccc(-c2nc3ccccc3s2)cc1NC(=O)c1cccc([N+](=O)[O-])c1C` here?
**A.** inconclusive: 1.58 µM [activator, full curve, poor fit]

**Q.** For `O=S(=O)(NCC(c1ccccc1)N1CCc2ccccc21)c1ccccc1` (stereo not drawn), which Potency is on record?
**A.** inconclusive: 5.62 µM [inhibitor, single point]

**Q.** Which “activity change, negative = inhibition” value does the source give for `CCC(=O)Nc1ccc(C(=O)Nc2ccc3c(c2)OCO3)cc1` here?
**A.** inactive: 3.88%

**Q.** Which Potency does the source give for `Cc1ccc(C(=O)NNS(=O)(=O)c2ccc(F)cc2)cc1` here?
**A.** inconclusive: 39.8 µM [activator, partial curve, poor fit]

**Q.** With `S=C(Nc1ccc(Oc2ccccc2)cc1)N1CCN(c2ccccn2)CC1` as the molecule, how does the Potency read?
**A.** inconclusive: 10 µM [inhibitor, partial curve, poor fit]

**Q.** For `CCOC(=O)C1CCN(Cc2c(F)cccc2Cl)CC1`, which “activity change, negative = inhibition” value is on record?
**A.** inactive: -5.48%

**Q.** For `Cc1ccc(N2CC(C(=O)Nc3ccccc3C(=O)NC3CCCCC3)CC2=O)cc1C` (stereo not drawn), which Potency is on record?
**A.** inconclusive: 2.06 µM [inhibitor, single point]

**Q.** For `COc1cc(-c2nc3oc4ccccc4c(=O)c3c(=O)n2Cc2ccco2)cc(OC)c1OC`, which Potency is on record?
**A.** active: 7.94 µM

**Q.** Which “activity change, negative = inhibition” value does the source give for `CCC(CC)C(=O)Nc1cccc(C(=O)Nc2ccc(S(N)(=O)=O)cc2)c1` here?
**A.** inactive: 6.32% [at 46.1 µM]

**Q.** With `Cn1c(SCC(=O)Nc2ccccc2F)nnc1-c1ccc(S(=O)(=O)N2CCOCC2)cc1` as the molecule, how does the Potency read?
**A.** inconclusive: 0.058 µM [inhibitor, partial curve, poor fit]

**Q.** Which Potency does the source give for `O=C(NCCc1ccccn1)c1cncc(Br)c1` here?
**A.** inconclusive: 25.1 µM [activator, single point]

**Q.** For `Cc1onc(-c2ccccc2)c1C(=O)NCCc1c[nH]c2ccccc12`, which Potency is on record?
**A.** inconclusive: 25.9 µM [activator, partial curve, poor fit]

**Q.** Which “activity change, negative = inhibition” value does the source give for `CCn1c(=O)c2sccc2n2c(CCC(=O)Nc3ccc(OC)cc3OC)nnc12` here?
**A.** inactive: -1.53% [at 46.1 µM]

**Q.** Which Potency does the source give for `Cc1ccc(C)c(S(=O)(=O)N2CCN(C(=O)C3CCN(c4ncnc5sc(C)c(C)c45)CC3)CC2)c1` here?
**A.** inconclusive: 28.2 µM [inhibitor, partial curve, poor fit]

**Q.** Which “activity change, negative = inhibition” value does the source give for `C[C@H](CO)NC(=O)[C@H](C)[C@H]1C[C@]1(C)[C@H](NC(=O)OCc1ccccc1)c1ccccc1` here?
**A.** inactive: -13%

**Q.** Which Potency does the source give for `CC1(C)CN(c2ccccc2)N(C(=O)c2ccc(C#N)cc2)C1=O` here?
**A.** inconclusive: 17.8 µM [inhibitor, partial curve]
